In ChEMBL document CHEMBL4715839, “Structure-activity relationships for binding of 4-substituted triazole-phenols to macrophage migration inhibitory factor (MIF)” (Eur J Med Chem, 2020):

What was measured:
[1] = substrate: O=C(NCc1cn(-c2ccc(O)c(F)c2)nn1)c1cc2ccccc2[nH]1; conditions: Homo sapiens; dose 1.0 µM
[2] = substrate: O=C(NCc1cn(-c2ccc(O)c(F)c2)nn1)c1cc2ccccc2[nH]1; conditions: Homo sapiens; dose 2.5 µM

B1: Macrophage migration inhibitory factor (Homo sapiens), P14174 (protein)
chain: MPMFIVNTNVPRASVPDGFLSELTQQLAQATGKPPQYIAVHVVPDQLMAFGGSSEPCALCSLHSIGKIGGAQNRSYSKLLCGLLAERLRISPDRVYINYYDMNAANVGWNNSTFA
Km [1]: 1600 µM | Km [2]: 1950 µM
